Results deposited as PubChem BioAssay AID1224826 (NIAID, 2016)

Test: 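Genes that change LPS-induced Tnf promoter activity in mouse macrophages when knocked down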 (primary screen)
Cells: RAW264.7 G9 macrophages from mouse bearing reporters for p65 (GFP) and the Tnf promoter (mCherry)
Reagents: siRNA pool against mouse genes, 100 nM
Duration: 16 h of LPS stimulation, after 2 days of siRNA transfection
Challenge: bacterial lipopolysaccharide (Salmonella minnesota R595), 10 ng/ml
Measured: 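Imaged Tnf reporter mCherry in nuclei, minus background, normalised per plate to the median and expressed as robust z-scores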
Direction: Tnf reporter robust z-score: higher = stronger Tnf promoter reporter signal after LPS
Rule for the call: 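a well counts as active at a score of -1.3 or below (Tlr4 knock-down control median) or above 3 (raised signal); controls and wells holding fewer than 50 cells are excluded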
Calls: active = Tnf reporter clearly lowered or raised; inactive = no clear change in Tnf reporter
In all, the deposit lists about 17,000 reagents; shown is a random part of them. About 1,110 of all reagents (6.6%) count as active. 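Active means lowered or raised reporter signal; replicate intensities are raw and not normalised per plate.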 Entries without a mark were called inactive. Not all columns of the deposit are shown. No sequences are given here.

Fgf23 (fibroblast growth factor 23)
- Tnf reporter robust z-score: 0.01
- fewer than 50 cells in well: enough cells in well

Ybx1 (Y box protein 1)
- Tnf reporter robust z-score: -0.49
- fewer than 50 cells in well: enough cells in well

Csf2ra
- Tnf reporter robust z-score: -0.26
- fewer than 50 cells in well: enough cells in well

Mup5 (major urinary protein 5)
- Tnf reporter robust z-score: 0.5
- fewer than 50 cells in well: enough cells in well

Usp24 (ubiquitin specific peptidase 24)
- Tnf reporter robust z-score: 1.75
- fewer than 50 cells in well: enough cells in well

Hey1 (hairy/enhancer-of-split related with YRPW motif 1)
- Tnf reporter robust z-score: -1.35 (active)
- fewer than 50 cells in well: enough cells in well

Patl2 (protein associated with topoisomerase II homolog 2 (yeast))
- Tnf reporter robust z-score: 3.31 (active)
- fewer than 50 cells in well: enough cells in well

D830024N08Rik (RIKEN cDNA D830024N08 gene)
- Tnf reporter robust z-score: 0.28
- fewer than 50 cells in well: enough cells in well

St8sia4 (ST8 alpha-N-acetyl-neuraminide alpha-2,8-sialyltransferase 4)
- Tnf reporter robust z-score: -1.78 (active)
- fewer than 50 cells in well: enough cells in well

Zw10 (zw10 kinetochore protein)
- Tnf reporter robust z-score: 0.7
- fewer than 50 cells in well: enough cells in well

Lyar (Ly1 antibody reactive clone)
- Tnf reporter robust z-score: -0.2
- fewer than 50 cells in well: enough cells in well

Fam110b (family with sequence similarity 110, member B)
- Tnf reporter robust z-score: 3.11 (active)
- fewer than 50 cells in well: enough cells in well

Fhod1 (formin homology 2 domain containing 1)
- Tnf reporter robust z-score: 1.26
- fewer than 50 cells in well: enough cells in well

Ralgps1 (Ral GEF with PH domain and SH3 binding motif 1)
- Tnf reporter robust z-score: 1.32
- fewer than 50 cells in well: enough cells in well

Gpatch3 (G patch domain containing 3)
- Tnf reporter robust z-score: 0.27
- fewer than 50 cells in well: enough cells in well

Akr1b1 (aldo-keto reductase family 1 member B)
- Tnf reporter robust z-score: 0.88
- fewer than 50 cells in well: enough cells in well

Prl7c1 (prolactin family 7, subfamily c, member 1)
- Tnf reporter robust z-score: 0.21
- fewer than 50 cells in well: enough cells in well

Ppid (peptidylprolyl isomerase D (cyclophilin D))
- Tnf reporter robust z-score: -0.67
- fewer than 50 cells in well: enough cells in well

F2rl3 (F2R like thrombin or trypsin receptor 3)
- Tnf reporter robust z-score: 0.95
- fewer than 50 cells in well: enough cells in well

Adh7 (alcohol dehydrogenase 7 (class IV), mu or sigma polypeptide)
- Tnf reporter robust z-score: -0.05
- fewer than 50 cells in well: enough cells in well

Glul (glutamate-ammonia ligase)
- Tnf reporter robust z-score: -1.88 (active)
- fewer than 50 cells in well: enough cells in well

A run of entries from the list above, for reference:
Patl2 (protein associated with topoisomerase II homolog 2 (yeast))
- Tnf reporter robust z-score: 3.31 (active)
- fewer than 50 cells in well: enough cells in well

D830024N08Rik (RIKEN cDNA D830024N08 gene)
- Tnf reporter robust z-score: 0.28
- fewer than 50 cells in well: enough cells in well
